PubChem BioAssay AID1224826 – NIAID | 2016

Assay: 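Genes that change LPS-induced Tnf promoter activity in mouse macrophages when knocked down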 (primary screen)
Cells: RAW264.7 G9 macrophages from mouse bearing reporters for p65 (GFP) and the Tnf promoter (mCherry)
Reagents: siRNA pool against mouse genes, 100 nM
Duration: 16 h of LPS stimulation, after 2 days of siRNA transfection
Treatment: bacterial lipopolysaccharide (Salmonella minnesota R595), 10 ng/ml
Read-out: 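Imaged Tnf reporter mCherry in nuclei, minus background, normalised per plate to the median and expressed as robust z-scores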
Reading the numbers: Tnf reporter robust z-score: higher = stronger Tnf promoter reporter signal after LPS; Tnf reporter intensity: higher = stronger Tnf promoter reporter signal
Call rule: 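a well counts as active at a score of -1.3 or below (Tlr4 knock-down control median) or above 3 (raised signal); controls and wells holding fewer than 50 cells are excluded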
Meaning of the calls: active = Tnf reporter clearly lowered or raised; inactive = no clear change in Tnf reporter
This is a random part of about 17,000 deposited reagents. About 1,110 of all reagents (6.6%) were called active. 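Active means lowered or raised reporter signal; replicate intensities are raw and not normalised per plate.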 Entries without a mark were called inactive.

gene | Tnf reporter robust z-score | fewer than 50 cells in well | Tnf reporter intensity, replicate 1 | Tnf reporter intensity, replicate 2
Srsf7 | -0.44 | enough cells in well | 239 | 182
Pcmtd1 | -0.36 | enough cells in well | 152 | 133
Slc22a4 | 0.34 | enough cells in well | 93.3 | 133
Cct8l1 | 3.28 (active) | enough cells in well | 527 | 339
Ccnd2 | 1.25 | enough cells in well | 366 | 281
Or4f7 | -1.45 (active) | enough cells in well | 97.8 | 57.6
Ankzf1 | 1.09 | enough cells in well | 273 | 228
Tac1 | -1.07 | enough cells in well | 186 | 62.1
Crct1 | – | fewer than 50 cells per well; well left out of calls | 117 | 28.3
Plec | -0.26 | enough cells in well | 211 | 187
Wdcp | -1.75 (active) | enough cells in well | 24.6 | 62.5
Morc2a | 0.78 | enough cells in well | 142 | 174
Bola2 | 1.55 | enough cells in well | 346 | 132
Pimreg | 0.32 | enough cells in well | 175 | 174
Gtf2f2 | -0.43 | enough cells in well | 204 | 215
Tpte | 0.38 | enough cells in well | 303 | 207
Prss22 | -0.37 | enough cells in well | 120 | 107
Pex19 | -0.64 | enough cells in well | 208 | 127
Ino80c | 0.69 | enough cells in well | 249 | 195
Gtf2i | -0.41 | enough cells in well | 222 | 203
Map4k1 | -0.88 | enough cells in well | 104 | 145
Mrgprb2 | -0.21 | enough cells in well | 232 | 219
Tnfsf13b | -0.31 | enough cells in well | 230 | 107
Cspp1 | -0.19 | enough cells in well | 195 | 74
Dmrta1 | -0.88 | enough cells in well | 150 | 68.1
Enpp5 | -0.36 | enough cells in well | 198 | 206
Rps6kb1 | -1.7 (active) | enough cells in well | 60.1 | 48.7
Tspan33 | -0.54 | enough cells in well | 270 | 47.4
Rab10 | 0.21 | enough cells in well | 293 | 245
Med6 | -0.24 | enough cells in well | 268 | 167
Gramd1c | – | fewer than 50 cells per well; well left out of calls | 112 | 55.8
Vps29 | 1.29 | enough cells in well | 187 | 115
Mettl6 | -0.96 | enough cells in well | 194 | 49.6
Dnajc15 | -0.61 | enough cells in well | 152 | 135
Gzmn | 0.18 | enough cells in well | 236 | 191
Ctsq | -1.35 (active) | enough cells in well | 76.3 | 121
Map4k2 | – | fewer than 50 cells per well; well left out of calls | 171 | 98.8
Arhgap5 | 0.8 | enough cells in well | 221 | 207
Abhd16b | – | fewer than 50 cells per well; well left out of calls | 173 | 109
Aptx | 0.4 | enough cells in well | 183 | 202
Styxl1 | 1.25 | enough cells in well | 215 | 235
Glyat | -1.31 (active) | enough cells in well | 155 | 79.9
Or10ag58 | -0.41 | enough cells in well | 173 | 120
Rimkla | 1.72 | enough cells in well | 184 | 247
Or52z12 | – | fewer than 50 cells per well; well left out of calls | 68.2 | 183
Padi4 | – | fewer than 50 cells per well; well left out of calls | 160 | 161
Aurkaip1 | 0.79 | enough cells in well | 188 | 213
B4galt4 | -0.08 | enough cells in well | 207 | 195
Rnaset2b | -1.34 (active) | enough cells in well | 163 | 116
Nob1 | – | fewer than 50 cells per well; well left out of calls | 139 | 45.8
Slc35f1 | – | fewer than 50 cells per well; well left out of calls | 60.3 | 155
Ptk6 | -0.32 | enough cells in well | 168 | 150
Or4g16 | 2.42 | enough cells in well | 316 | 227
Nfkbia | 0.41 | enough cells in well | 279 | 88.7
Ago1 | 2.14 | enough cells in well | 284 | 223
Oas1e | -0.78 | enough cells in well | 150 | 101
Tbc1d1 | – | fewer than 50 cells per well; well left out of calls | 93.6 | 71.2
Ankmy1 | 0.49 | enough cells in well | 203 | 91.2

Just “Tnf reporter intensity, replicate 1”, for 8 of the entries above:
Mettl6: 194
Dnajc15: 152
Gzmn: 236
Ctsq: 76.3 (active)
Map4k2: 171
Arhgap5: 221
Abhd16b: 173
Aptx: 183
